# Measurements reported in patent publication US20240342214A1 (MEDIZINISCHE HOCHSCHULE HANNOVER, published 2024).
# T1: human ENTPD3 (Ectonucleoside triphosphate diphosphohydrolase 3) expressed on cells (human, UniProt O75355 1-529)
# T1 sequence: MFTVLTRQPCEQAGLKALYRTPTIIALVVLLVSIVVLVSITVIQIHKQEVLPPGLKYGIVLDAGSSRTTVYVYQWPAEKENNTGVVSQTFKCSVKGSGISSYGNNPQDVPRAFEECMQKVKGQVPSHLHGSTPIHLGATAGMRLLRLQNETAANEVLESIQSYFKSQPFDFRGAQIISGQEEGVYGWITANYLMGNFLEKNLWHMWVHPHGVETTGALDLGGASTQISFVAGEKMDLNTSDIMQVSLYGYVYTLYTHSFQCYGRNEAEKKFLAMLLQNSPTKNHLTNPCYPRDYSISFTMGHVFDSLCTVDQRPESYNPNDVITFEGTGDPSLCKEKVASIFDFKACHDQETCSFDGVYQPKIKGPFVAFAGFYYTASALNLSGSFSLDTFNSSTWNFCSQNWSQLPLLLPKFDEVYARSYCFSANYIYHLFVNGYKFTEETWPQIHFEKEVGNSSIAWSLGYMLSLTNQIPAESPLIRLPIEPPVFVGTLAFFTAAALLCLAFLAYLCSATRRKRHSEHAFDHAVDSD
# B1: CAR 4-CD8 (antigen binding domain from binder C1, CD8 hinge) (other)
# chain: QVQLVQSGAEVKKPGESLKISCKGSGYSFTSYWIGWVRQMPGKGLEWMGIIYPGDSGTRYSPSFQGQVTISADKSISTAYLQWSSLKASNTAMYYCARQQGAGAFDIWGQGTMVTVSSGGGGSGGGGSGGGGSQSALTQPPSASGSPGQSVTISCTGTSRDVGGYNYVSWYQQHPGKAPKLILYEVTKRPSGVPDRFSGSKSGNTASLTISGLQAEDEADYYCSSYTSSSTVVFGGGTKLTVLTRFVPVFLPAKPTTTPAPRPPTPAPTIASQPLSLRPEACRPAAGGAVHTRGLDFACDIYIWAPLAGTCGVLLLSLVITLYCNHRPPALEWVRSKRSRLLHSDYMNMTPRRPGPTRKHYQPYAPPRDFAAYRSASCTRVKFSRSADAPAYQQGQNQLYNELNLGRREEYDVLDKRRGRDPEMGGKPRRKNPQEGLYNELQKDKMAEAYSEIGMKGERRRGKGHDGLYQGLSTATKDTYDALHMQALPPR
# B2: CAR 13-CD8 (antigen binding domain from binder F8, CD8 hinge) (other)
# chain: QIQLVQSGTEVKKPGESLKISCKGSGYSFISHWIGWVRQMPGKGLEWMGIIYPGDSGTRYSPSFQGQATISADKSISTAYLQWSSLKASDTAMYYCARLADGGLQFDHWGQGTLVTVSSGGGGSGGGGSGGGGSQSALTQPASVSGSPGQSITISCTGTSSDVGGYNYVSWYQQHPGKAPKLMIYGVSNRPSGVSNRFSGSKSGNTASLTISGLQAEDEADYYCNSYTSSSTYVFGTGTKVTVLTRFVPVFLPAKPTTTPAPRPPTPAPTIASQPLSLRPEACRPAAGGAVHTRGLDFACDIYIWAPLAGTCGVLLLSLVITLYCNHRPPALEWVRSKRSRLLHSDYMNMTPRRPGPTRKHYQPYAPPRDFAAYRSASCTRVKFSRSADAPAYQQGQNQLYNELNLGRREEYDVLDKRRGRDPEMGGKPRRKNPQEGLYNELQKDKMAEAYSEIGMKGERRRGKGHDGLYQGLSTATKDTYDALHMQALPPR
# Assays:
# [1] = molecular target: T1, human ENTPD3 (Ectonucleoside …); experiment: cell-based or functional assay
# [2] = molecular target: T1, human ENTPD3 (Ectonucleoside …); experiment: cell-based or functional assay; remark: listed apart in the source
binder,measurement,setting,value
B1,Fold Change in TNF-α secretion (hIsMT/T cell co-culture 48 hrs),[1],"386 fold, relative to the mock CD8 T cells condition"
same,Fold Change in TNF-α secretion (hIsMT/T cell co-culture 72 hrs),[1],"330 fold, relative to the mock CD8 T cells condition"
same,Fold Change in IFN-γ secretion (hIsMT/T cell co-culture 48 hrs),[2],"184 fold, relative to the mock CD8 T cells condition"
same,Fold Change in IFN-γ secretion (hIsMT/T cell co-culture 72 hrs),[2],"166 fold, relative to the mock CD8 T cells condition"
B2,Fold Change in TNF-α secretion (hIsMT/T cell co-culture 48 hrs),[1],"341 fold, relative to the mock CD8 T cells condition"
same,Fold Change in TNF-α secretion (hIsMT/T cell co-culture 72 hrs),[1],"301 fold, relative to the mock CD8 T cells condition"
same,Fold Change in IFN-γ secretion (hIsMT/T cell co-culture 48 hrs),[2],"280 fold, relative to the mock CD8 T cells condition"
same,Fold Change in IFN-γ secretion (hIsMT/T cell co-culture 72 hrs),[2],"310 fold, relative to the mock CD8 T cells condition"
